Here are results for one molecule from patent US20130251714A1.

By UniProt entry, the sequences of proteins in these tests, tags left out.
UniProt P32302: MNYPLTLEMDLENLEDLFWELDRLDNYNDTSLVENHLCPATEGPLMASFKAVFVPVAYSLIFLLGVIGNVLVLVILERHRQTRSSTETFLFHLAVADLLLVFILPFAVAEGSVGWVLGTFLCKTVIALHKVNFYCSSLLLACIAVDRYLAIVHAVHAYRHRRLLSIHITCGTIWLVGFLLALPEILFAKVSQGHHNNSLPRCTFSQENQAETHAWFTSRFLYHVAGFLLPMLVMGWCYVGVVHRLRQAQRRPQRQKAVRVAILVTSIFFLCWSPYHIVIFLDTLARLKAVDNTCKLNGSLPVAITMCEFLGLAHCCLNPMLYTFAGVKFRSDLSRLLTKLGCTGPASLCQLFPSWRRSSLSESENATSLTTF

The assay deals with human CXCR5 (full-length, expressed on cells) (human) (UniProt P32302). The experiment in a line: FACS on human PBMCs (B cells).

These are yes or no findings as the source states them, for the method shown. Some results given as binding are weak or reduced against the parent protein; the word gives no strength.

B1: 16D7-HC1-LC6 (antibody, V domains shown)
VH: QVQLKESGPGLVAPSESLSITCTVSGFSLIDYGVNWIRQPPGKGLEWLGVIWGDGTTYYNPSLKSRLSISKDNSKSQVFLKVTSLTTDDTAMYYCARIVYWGQGTLVTVSA
VL: DIVMTQSALSVAVTPGESVSISCRSSKSLLHSSGKTYLYWFLQRPGQSPQLLIYRLSSLASGVPDRFSGSGSGTAFTLKISRVEAEDVGVYYCMQHLEYPYTFGGGTKLEIKR
For the molecule B1, the binding entry is on record as “binds”.
